# Reference: article PMC12040169 (PLOS Biology, 2025)
# Like-named read-outs stand apart in the source and are kept apart here. The list shows a part of the results.
# Tested on: T1, CTL2-GFP (C. trachomatis L2/434/Bu, GFP-expressing)
# T1 construct: L2/434/Bu, GFP-expressing
# Set-up: species or system HeLa; Intracellular C. trachomatis growth in HeLa cells, bulk GFP fluorescence relative to DMSO
SMILES,"% of control remaining (28.5 h, 10 µM; inhibitor) [%]","% of control remaining (28.5 h, 10 µM, inhibitor) [%]"
CC(N)Cc1cn(C)c2ccccc12 (stereo not drawn) [CBK012030C],125.824,–
O=C1NC(=O)N(c2ccc(Cl)cc2)C(=O)/C1=C\NCCCO [CBK261648],100,–
O=C(NN=C1CCCCC1)C(O)(c1ccccc1)c1ccccc1 [CBK261783],100,–
CS(=O)(=O)c1ccc(-c2ccc3c(c2)CCN(C2CCN(C(=O)Oc4ccccc4)CC2)C3)cc1 [CBK169518],105.443,–
Cc1ccccc1N1C(=O)NC(=O)/C(=C/NCCCn2ccnc2)C1=O [CBK261829],100,–
O=C(O)c1cc(NC(=O)c2ccc3c(c2)C(=O)N(Cc2ccco2)C3=O)cc(C(=O)O)c1 [CBK267374],177.125,–
O=C1NC(=O)C(=Cc2cc(Br)ccc2OCc2cccc(F)c2)C(=O)N1 [CBK264160],100,–
O=P(O)(O)/C=C(\Cl)c1ccccc1 [CBK261019],92.1065,–
CONC(=O)c1nn(Cc2ccc(C)cc2)c2ccccc12 [CBK047848],105.192,–
Cc1cccc(CNC(Cc2ccsc2)c2nccs2)n1 (stereo not drawn) [CBK282697],100.389,–
COC(=O)c1ccc(N2C(=O)NC(=O)/C(=C\c3ccccc3OCC(=O)O)C2=O)cc1 [CBK265459],100,–
O=C(NC1CC1)c1nn(Cc2ccc(S(=O)(=O)N3CCCCC3)cc2)c2ccccc12 [CBK047820],114.258,–
CCCN(CCCc1ccccc1)C1Cc2cc(OC)c(OC)cc2C1 [CBK017596C],128.302,–
O=C(N[C@H]1CCN2C(=O)N(CCCl)C(=O)[C@@H]2C1)c1ccncc1 [CBK289551],112.192,–
COc1ccccc1CCNCc1ccc([N+](=O)[O-])cc1 [CBK262292],100,–
CCOc1cccc(N2C(=O)/C(=C\c3ccc(-c4ccc(C(=O)O)c(Cl)c4)o3)C(=O)NC2=S)c1 [CBK263403],100,–
CSc1nnc(C(N)Cc2c[nH]c3ccccc23)o1 (stereo not drawn) [CBK269950C],137.185,–

SMILES,"% of control remaining (28.5 h, 10 µM; inhibitor) [%]","% of control remaining (28.5 h, 10 µM, inhibitor) [%]"
CCOc1ccc(N2C(=O)NC(=O)/C(=C\NCCc3c[nH]c4ccccc34)C2=O)cc1 [CBK261125],100,–
COc1cc(C(=O)N2CCC(N3C(=O)Cc4ccccc43)CC2)ccc1C [CBK155465],135.064,–
CN(C)[C@@H]1C[C@H](C2(c3ccccc3)OCCO2)CC[C@H]1N(C)C(=O)Cc1ccc(Cl)c(Cl)c1 [CBK016338],127.658,–
CS(=O)(=O)c1ccc(-c2ccc3c(c2)OCCN(C2CCN(C(=O)Oc4ccccc4)CC2)C3)cc1 [CBK169259],118.764,–
O=C1NC(=O)N(c2ccc(O)cc2)C(=O)/C1=C/c1cc(Cl)c(OCc2ccccc2)c(Cl)c1 [CBK265385],100,–
NC(=O)C(=O)c1cn(Cc2ccccc2)c2ccccc12 [CBK288473],128.191,–
COc1ccc(N2C(=O)/C(=C/c3cc(C)n(-c4ccc(N5CCOCC5)cc4)c3C)C(=O)NC2=S)cc1 [CBK263798],100,–
O=P(Nc1ccc(Cl)c(Cl)c1)(Nc1ccc(Cl)c(Cl)c1)Oc1ccc(Cl)cc1 [CBK263487],128.864,–
CCOC(=O)C1(c2ccccc2)CCN(C(=O)CCN2CCN(C)CC2)CC1 [CBK132211],100,–
O=C(O)CCCNC(=O)C(O)(c1ccccc1)c1ccccc1 [CBK269156],142.02,–
O=C(O)C1C2CCC(O2)C1C(=O)NC1CCCCC1 (stereo not drawn) [CBK286848],109.028,–
CSc1ccc(CN2CCN(Cc3ccc(Br)cc3)CC2)cc1 [CBK027856],–,100
O=[N+]([O-])c1ccc(-n2cnc3ccccc32)c([N+](=O)[O-])c1 [CBK261120],16.1468,–
CNC(=O)Oc1ccc(C)cc1C(=O)N(C)C [CBK012319],115.139,–
COc1ccc([C@]23CC[C@H](NC(=O)Nc4ccc(C#N)c(Cl)c4)C[C@H]2N(C)CC3)cc1OC [CBK066928T],105.621,–
O=c1[nH]c(=S)[nH]c(O)c1CN1CCOCC1 [CBK262493],100,–

# Given with bars between the fields: entries from further up
SMILES | % of control remaining (28.5 h, 10 µM; inhibitor) [%] | % of control remaining (28.5 h, 10 µM, inhibitor) [%]
O=[N+]([O-])c1ccc(-n2cnc3ccccc32)c([N+](=O)[O-])c1 [CBK261120] | 16.1468 | –
CNC(=O)Oc1ccc(C)cc1C(=O)N(C)C [CBK012319] | 115.139 | –
